Twelve compounds from US20200249573A1, “COMPOSITION FOR RESIST UNDERLAYER FILM FORMATION, UNDERLAYER FILM FOR LITHOGRAPHY, AND PATTERN FORMATION METHOD” (MITSUBISHI GAS CHEMICAL COMPANY, INC., priority 2016, published 2020) can be followed below.

A short description of this data set: Etching test / evaluation of etching resistance of underlayer films against novolac underlayer film. Particulars: 200 nm film, Ar/CF4/O2 50:5:5 sccm, vs novolac.
[1] abbreviates: composition 10 parts in PGMEA (90) with DTDPI (0.5) and NIKALAC (0.5), baked at 240° C. for 60 seconds.
[2] abbreviates: composition 10 parts in PGMEA (90), no acid generating agent, no crosslinking agent, baked at 300° C. for 60 seconds.

The structures appear in SMILES notation.

For `Oc1ccc([Te](Cl)(Cl)c2ccc(O)cc2)cc1` [BHPT, bis(4-hydroxyphenyl)tellurium dichloride], the “Evaluation of etching resistance” value is listed as “A (The etching rate was less than −10% as compared with the underlayer film of novolac.)” under setting [1] and “A (The etching rate was less than −10% as compared with the underlayer film of novolac.)” under setting [2]. `CC1(OC(=O)COc2ccc([Te](Cl)(Cl)c3ccc(OCC(=O)OC4(C)C5CC6CC(C5)CC4C6)cc3)cc2)C2CC3CC(C2)CC1C3` (stereo not drawn) [BHPT-ADBAC, bis(4-(2-methyl-2-adamantyloxycarbonylmethoxy)phenyl)tellurium dichloride]: the “Evaluation of etching resistance” value reads like this: under setting [1], “A (The etching rate was less than −10% as compared with the underlayer film of novolac.)”; under setting [2], “A (The etching rate was less than −10% as compared with the underlayer film of novolac.)”.

For the compound `Oc1ccc([Te](Cl)(Cl)c2ccc(O)cc2O)cc1` [CCHT, (2,4-dihydroxyphenyl) (4-hydroxyphenyl)tellurium dichloride], the “Evaluation of etching resistance” value under setting [1] was “A (The etching rate was less than −10% as compared with the underlayer film of novolac.)”. On to `CC1(OC(=O)COc2ccc([Te](Cl)(Cl)c3ccc(OCC(=O)OC4(C)C5CC6CC(C5)CC4C6)cc3OCC(=O)OC3(C)C4CC5CC(C4)CC3C5)cc2)C2CC3CC(C2)CC1C3` (stereo not drawn) [CCHT-ADBAC], for which the “Evaluation of etching resistance” value under setting [1] is given as “A (The etching rate was less than −10% as compared with the underlayer film of novolac.)”. Take `Oc1ccc([Te](Cl)(Cl)c2ccc(O)c(-c3ccccc3)c2)cc1-c1ccccc1` [Ph-BHPT, bis(3-phenyl-4-hydroxyphenyl)tellurium dichloride]: the “Evaluation of etching resistance” value under setting [1] is on record as “A (The etching rate was less than −10% as compared with the underlayer film of novolac.)”. In the case of `CC1(OC(=O)COc2ccc([Te](Cl)(Cl)c3ccc(OCC(=O)OC4(C)C5CC6CC(C5)CC4C6)c(-c4ccccc4)c3)cc2-c2ccccc2)C2CC3CC(C2)CC1C3` (stereo not drawn) [Ph-BHPT-ADBAC], the “Evaluation of etching resistance” value under setting [1] is reported as “A (The etching rate was less than −10% as compared with the underlayer film of novolac.)”.

As for `Oc1ccc([Te]c2ccc(O)c(-c3ccccc3)c2)cc1-c1ccccc1` [Ph-TDP, bis(3-phenyl-4-hydroxyphenyl)tellurium], under setting [1], the “Evaluation of etching resistance” value was “A (The etching rate was less than −10% as compared with the underlayer film of novolac.)”.

On to `CC1(OC(=O)COc2ccc([Te]c3ccc(OCC(=O)OC4(C)C5CC6CC(C5)CC4C6)c(-c4ccccc4)c3)cc2-c2ccccc2)C2CC3CC(C2)CC1C3` (stereo not drawn) [Ph-TDP-ADBAC], for which the “Evaluation of etching resistance” value under setting [1] was “A (The etching rate was less than −10% as compared with the underlayer film of novolac.)”. The same measure, in the same setting: the result for `CC(C)(C)OC(=O)COc1ccc([Te]c2ccc(OCC(=O)OC(C)(C)C)c(-c3ccccc3)c2)cc1-c1ccccc1` [Ph-TDP-BOC] reads “A (The etching rate was less than −10% as compared with the underlayer film of novolac.)”; that for `CCOC(C)Oc1ccc([Te](Cl)(Cl)c2ccc(OC(C)OCC)c(-c3ccccc3)c2)cc1-c1ccccc1` (stereo not drawn) [Ph-TDP-EE], “A (The etching rate was less than −10% as compared with the underlayer film of novolac.)”. Take `Oc1ccc([Te]c2ccc(O)cc2)cc1` [TDP, 4,4′-telluriumdiphenol]: the “Evaluation of etching resistance” value is, setting by setting: under setting [1], “A (The etching rate was less than −10% as compared with the underlayer film of novolac.)”; under setting [2], “A (The etching rate was less than −10% as compared with the underlayer film of novolac.)”. `CC1(OC(=O)COc2ccc([Te]c3ccc(OCC(=O)OC4(C)C5CC6CC(C5)CC4C6)cc3)cc2)C2CC3CC(C2)CC1C3` (stereo not drawn) [TDP-ADBAC]: the “Evaluation of etching resistance” value under setting [1] is reported as “A (The etching rate was less than −10% as compared with the underlayer film of novolac.)”.
